Source: PubChem BioAssay AID686938 (Drosophila RNAi Screening Center, 2013)
Test: 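Looking for CRAC channel components and the factors controlling them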 (primary screen). Cell system: Drosophila S2R+ cells. Reagents: long dsRNA against Drosophila genes, about 0.25 µg dsRNA per well, roughly 10,000 cells. Timing: 5 days of knock-down before the calcium assay. Challenge: thapsigargin (SERCA pump blocker) to empty calcium stores; entry signal taken 4 min after adding it. Measured: 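Duplicate raw fluo-4 intensities per well from a plate reader, at rest and four minutes after thapsigargin emptied calcium stores; entry-to-rest ratio filled for only some wells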. Scale: calcium entry signal: higher = stronger calcium signal after store depletion; resting calcium signal: higher = higher resting calcium signal. Call rule: 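Called when the plate z-score of the entry-to-rest ratio, mean of duplicates, falls below −3; wells with low overall dye signal (Fmax z below −2) or more than five off-targets excluded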. Calls: active = strongly reduced calcium entry; inactive = no strong reduction.
The deposit covers about 23,000 reagents; below is a random part of those that have a named target and a result. Of all reagents, 75 (0.33%) are marked active. 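Raw plate signals without normalisation; calls rest on plate z-scores that were not deposited; ratio present for only 364 wells.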 Reagents against one gene are numbered here. Not stated in the record: the dose of the treatment.

gene	reagent	calcium entry signal, replicate 1 (fluorescence units)	calcium entry signal, replicate 2 (fluorescence units)	resting calcium signal, replicate 1 (fluorescence units)	resting calcium signal, replicate 2 (fluorescence units)	outcome
Gbp3	1	6.06e7	7.16e7	2.73e7	2.90e7	inactive
CG31517	1	3.97e7	3.81e7	2.46e7	1.68e7	inactive
CG8726	1	3.37e7	3.43e7	1.45e7	1.67e7	inactive
CG34434	1	2.49e7	2.84e7	1.31e7	1.43e7	inactive
CG17896	1	5.51e7	5.17e7	2.31e7	2.33e7	inactive
BI-1	1	3.31e7	2.12e7	2.40e7	1.03e7	inactive
CG14658	1	2.69e7	5.02e7	1.36e7	1.84e7	inactive
Poc1	1	5.36e7	3.45e7	3.19e7	1.50e7	inactive
CG13807	1	2.96e7	4.25e7	1.62e7	2.16e7	inactive
Reepl1	1	3.51e7	4.47e7	1.75e7	1.98e7	inactive
ACXE	1	5.10e7	3.03e7	2.10e7	1.42e7	inactive
CG5397	1	5.04e7		2.65e7		inactive
Nek2	1	4.55e7	3.00e7	2.04e7	1.55e7	inactive
CG5556	1	4.14e7	5.59e7	1.92e7	2.25e7	inactive
CG7886	1	2.70e7	3.94e7	1.37e7	6.30e7	inactive
fru	1	3.62e7	3.93e7	4.65e7	2.11e7	inactive
fru	2	3.93e7	4.93e7	2.39e7	4.37e7	inactive
fru	3	5.31e7	5.66e7	5.06e7	2.75e7	inactive
fru	4	2.71e7	2.86e7	1.64e7	1.34e7	inactive
CG15332	1	2.86e7	4.57e7	1.51e7	2.09e7	inactive
Sox100B	1	2.44e7	3.57e7	1.56e7	2.01e7	inactive
Sox100B	2	3.53e7	5.40e7	1.86e7	2.21e7	inactive
Pms2	1	2.73e7	1.98e7	1.15e7	9.55e6	inactive
CG10366	1	5.55e7		2.66e7		inactive
VGlut	1	3.75e7	4.93e7	1.65e7	2.46e7	inactive
VGlut	2	3.50e7	3.48e7	2.04e7	1.62e7	inactive

5 successive entries already listed, for reference:
gene	reagent	calcium entry signal, replicate 1 (fluorescence units)	calcium entry signal, replicate 2 (fluorescence units)	resting calcium signal, replicate 1 (fluorescence units)	resting calcium signal, replicate 2 (fluorescence units)	outcome
CG8726	1	3.37e7	3.43e7	1.45e7	1.67e7	inactive
CG34434	1	2.49e7	2.84e7	1.31e7	1.43e7	inactive
CG17896	1	5.51e7	5.17e7	2.31e7	2.33e7	inactive
BI-1	1	3.31e7	2.12e7	2.40e7	1.03e7	inactive
CG14658	1	2.69e7	5.02e7	1.36e7	1.84e7	inactive

Next results follow:
gene	reagent	calcium entry signal, replicate 1 (fluorescence units)	calcium entry signal, replicate 2 (fluorescence units)	resting calcium signal, replicate 1 (fluorescence units)	resting calcium signal, replicate 2 (fluorescence units)	outcome
Rev1	1	4.52e7	3.85e7	2.17e7	1.76e7	inactive
CG15468	1	3.77e7	4.11e7	1.84e7	1.85e7	inactive
PpN58A	1	3.14e7		1.57e7		inactive
PGS1	1	3.31e7	3.92e7	4.20e7	1.86e7	inactive
CG10616	1	4.44e7	4.36e7	3.03e7	1.79e7	inactive
Obp56h	1	4.60e7	4.85e7	2.23e7	2.62e7	inactive
CG17028	1	4.37e7	5.29e7	2.05e7	2.24e7	inactive
Rae1	1	2.58e7		1.52e7		inactive
out	1	3.88e7	4.42e7	1.86e7	1.83e7	inactive
CG15601	1	2.69e7	3.45e7	1.39e7	1.53e7	inactive
Zaf1	1	4.25e7	4.02e7	2.18e7	2.00e7	inactive
fy	1	3.24e7	4.62e7	1.68e7	1.91e7	inactive
Scamp	1	3.12e7	2.45e7	1.63e7	1.24e7	inactive
LPCAT	1	4.58e7	6.49e7	2.07e7	2.86e7	inactive
LPCAT	2	3.26e7	3.77e7	1.63e7	1.71e7	inactive
